# Test results: article PMC7271564 (Haematologica, 2019)
# Values joined by “and” are separate entries in the source; they are usually repeats but may differ in a detail not shown here. Equal values may be shown once.
# Assays:
# CD19+/B cells = experiment: High throughput no-wash flow cytometry; assay type: cell-based; settings: Homo sapiens, B-cell, read-out: median IC50, CD19+/B cells from healthy donor or patient samples (AML, CLL), Cohort II
# [1] = test system: CD34+CD38+ cells (CPC/blast); experiment: HTFC drug sensitivity assay, progenitor/blast cells; assay type: cell-based; settings: Homo sapiens, read-out: median IC50, CD34+CD38+/blast cells from FLT3-ITD mutated AML samples (n=5), Cohort II
smiles,measurement,setting,value
CO[C@@H]1[C@H](N(C)C(=O)c2ccccc2)C[C@H]2O[C@]1(C)n1c3ccccc3c3c4c(c5c6ccccc6n2c5c31)C(=O)NC4 [midostaurin],IC50,CD19+/B cells,314 nM and 319 nM
same,IC50,[1],554 nM
